# Measured data: PubChem BioAssay AID504744 (Drosophila RNAi Screening Center, 2011)
# Screen: 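Uncover factors, including feedback loops, that control dAkt activation in fly cells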 (primary screen)
# System: Drosophila Kc167 cells
# Knock-down reagent: long dsRNA against Drosophila genes, 250 ng dsRNA per well of a 384-well plate
# Time to read-out: 3 days of knock-down, then overnight serum-free starvation before stimulation
# Challenge: bovine insulin at 387 nM for 10 minutes after 12 h without serum
# Measurement: 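In-cell antibody fluorescence for phospho-dAkt in each well over DNA-dye signal, with log2 residuals expressed as z-scores adjusted for cell count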
# Call rule: 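Under insulin, a gene counts as a hit if the average z-score of two replicates lies above 2.5 or below -2.5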
# The deposit covers about 23,000 reagents; shown is an unselected part of those that have a named target and a result. In the full data, 98 (0.43%) were called active. 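Only hit calls are given; the phospho-dAkt signals, z-scores and hit direction were not deposited.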 A plus sign joins genes that one reagent is predicted to hit.
Gene,DRSC id,Outcome
"Edem2 (ER degradation enhancer, mannosidase alpha-like 2)",DRSC02877,inactive
Actbeta (Activin-beta),DRSC17185,inactive
Actbeta (Activin-beta),DRSC17217,inactive
eIF4G2 (eukaryotic translation initiation factor 4G2),DRSC14207,inactive
eIF4G2 (eukaryotic translation initiation factor 4G2),DRSC21739,inactive
CG14085,DRSC10089,inactive
CG14760,DRSC06495,inactive
CG30075,DRSC05484,inactive
"Arpc5 (Actin-related protein 2/3 complex, subunit 5)",DRSC00730,inactive
Daao1 (D-amino acid oxidase 1),DRSC06131,inactive
CG17440,DRSC18126,inactive
Acp32CD (Accessory gland protein 32CD),DRSC01858,inactive
CG14110,DRSC10113,inactive
Obp50d (Odorant-binding protein 50d),DRSC05483,inactive
Ulp1,DRSC19339,inactive
CG34165,DRSC01970,inactive
yellow-f,DRSC15348,inactive
lark,DRSC11362,inactive
GAA1 (Glycosylphosphatidylinositol anchor attachment 1),DRSC18267,inactive
CG34015,DRSC19140,inactive
Rpn1 (Regulatory particle non-ATPase 1),DRSC11274,inactive
vig2,DRSC14402,inactive
vrs (versager),DRSC15832,inactive
CG13282,DRSC02254,inactive
PolA1 (DNA polymerase alpha subunit 1),DRSC16640,inactive
CG14636,DRSC12223,inactive
CG4681,DRSC04481,inactive
CG14971,DRSC08430,inactive
CG13326,DRSC06363,inactive
mio (missing oocyte),DRSC00692,inactive
mio (missing oocyte),DRSC22056,inactive
caup (caupolican),DRSC11334,inactive
Pdk1 (Phosphoinositide-dependent kinase 1),DRSC08682,active
qsm (quasimodo),DRSC05896,inactive
qsm (quasimodo),DRSC06393,inactive
CG2961,DRSC18246,inactive
dyl (dusky-like),DRSC08466,inactive
dyl (dusky-like),DRSC08467,inactive
CG5276,DRSC15759,inactive
CG14107,DRSC10110,inactive
LysS (Lysozyme S),DRSC08677,inactive
snRNP-U1-C (small ribonucleoprotein particle U1 subunit C),DRSC15804,inactive
CG15878,DRSC08486,inactive
Hus1-like,DRSC12353,inactive
kud (kuduk),DRSC11086,inactive
Ogdh (Oxoglutarate dehydrogenase),DRSC09854,inactive
Ogdh (Oxoglutarate dehydrogenase),DRSC09855,inactive
CG13609,DRSC14612,inactive
CG13609,DRSC22843,inactive
pins (partner of inscuteable),DRSC17043,inactive
CG5892,DRSC15910,inactive
Irk1 (Inwardly rectifying potassium channel 1),DRSC16106,inactive
RapGAP1 (Rap GTPase activating protein 1),DRSC02293,inactive
RapGAP1 (Rap GTPase activating protein 1),DRSC02294,inactive
RapGAP1 (Rap GTPase activating protein 1),DRSC03406,inactive
CG42327,DRSC14936,inactive
CG42327,DRSC14937,inactive
Ir48c (Ionotropic receptor 48c),DRSC06154,inactive
"ATPsynepsilonL (ATP synthase, epsilon subunit-like)",DRSC14548,inactive
CG5934,DRSC15922,inactive
CG43338,DRSC22055,inactive
GAPcenA (GTPase activating protein and centrosome-associated),DRSC10771,inactive
CG10657,DRSC09768,inactive
CG32651,DRSC18941,inactive
Fatp3 (Fatty acid transport protein 3),DRSC04366,inactive
CG4945,DRSC06904,inactive
uif (uninflatable),DRSC00963,inactive
uif (uninflatable),DRSC03427,inactive
sni (sniffer),DRSC17770,inactive
KaiR1D (Kainate-type ionotropic glutamate receptor subunit 1D),DRSC15516,inactive
CG32984,DRSC21602,inactive
ddbt (deadbeat),DRSC07869,inactive
HP6 (Heterochromatin protein 6),DRSC00471,inactive
Alp4 (Alkaline phosphatase 4),DRSC14116,inactive
Ube4B (Ubiquitination factor E4B),DRSC03277,inactive
La (La autoantigen-like),DRSC03358,inactive
Grip84 (Gamma-tubulin ring protein 84),DRSC20248,inactive
Dok (Downstream of kinase),DRSC18204,inactive
Alp1 (Alkaline phosphatase 1),DRSC11781,inactive
Trm7-34 (tRNA methyltransferase 7-34),DRSC16171,inactive
Arp6 (Actin-related protein 6),DRSC19326,inactive
Arp10 (Actin-related protein 10),DRSC19448,inactive
FoxL1 (Forkhead box L1),DRSC08717,inactive
CG40551 (retired record),DRSC21229,inactive
CG6329,DRSC06976,inactive
CG11409,DRSC18579,inactive
CG30127 (retired record),DRSC05785,inactive
CG30127 (retired record),DRSC05786,inactive
CG12605,DRSC08286,inactive
Dim1,DRSC00563,inactive
Cdk1 (Cyclin-dependent kinase 1),DRSC03504,inactive
Dscam3 (Down syndrome cell adhesion molecule 3),DRSC14525,inactive
Dscam3 (Down syndrome cell adhesion molecule 3),DRSC16376,inactive
tsh (teashirt),DRSC03740,inactive
aPKC (atypical protein kinase C),DRSC05515,inactive
aPKC (atypical protein kinase C),DRSC07639,inactive
CG11342,DRSC08175,inactive
CG34200,DRSC04804,inactive
Idh3b (Isocitrate dehydrogenase 3b),DRSC16040,inactive
CG32727,DRSC17519,inactive
CG6048,DRSC18398,inactive
Atg10 + CG18853 + CG12822,DRSC20757,inactive
ND-24L (NADH dehydrogenase (ubiquinone) 24 kDa subunit-like),DRSC10650,inactive
CG5071,DRSC15710,inactive
CG5071,DRSC22570,inactive
CG12699,DRSC06162,inactive
mof (males absent on the first),DRSC18795,inactive

Active calls, of those listed so far:
Gene,DRSC id,Outcome
Pdk1 (Phosphoinositide-dependent kinase 1),DRSC08682,active
